{"sequences": {"note": "The chains behind the UniProt entries cited, without tags or fusion partners.", "UniProt P38873": "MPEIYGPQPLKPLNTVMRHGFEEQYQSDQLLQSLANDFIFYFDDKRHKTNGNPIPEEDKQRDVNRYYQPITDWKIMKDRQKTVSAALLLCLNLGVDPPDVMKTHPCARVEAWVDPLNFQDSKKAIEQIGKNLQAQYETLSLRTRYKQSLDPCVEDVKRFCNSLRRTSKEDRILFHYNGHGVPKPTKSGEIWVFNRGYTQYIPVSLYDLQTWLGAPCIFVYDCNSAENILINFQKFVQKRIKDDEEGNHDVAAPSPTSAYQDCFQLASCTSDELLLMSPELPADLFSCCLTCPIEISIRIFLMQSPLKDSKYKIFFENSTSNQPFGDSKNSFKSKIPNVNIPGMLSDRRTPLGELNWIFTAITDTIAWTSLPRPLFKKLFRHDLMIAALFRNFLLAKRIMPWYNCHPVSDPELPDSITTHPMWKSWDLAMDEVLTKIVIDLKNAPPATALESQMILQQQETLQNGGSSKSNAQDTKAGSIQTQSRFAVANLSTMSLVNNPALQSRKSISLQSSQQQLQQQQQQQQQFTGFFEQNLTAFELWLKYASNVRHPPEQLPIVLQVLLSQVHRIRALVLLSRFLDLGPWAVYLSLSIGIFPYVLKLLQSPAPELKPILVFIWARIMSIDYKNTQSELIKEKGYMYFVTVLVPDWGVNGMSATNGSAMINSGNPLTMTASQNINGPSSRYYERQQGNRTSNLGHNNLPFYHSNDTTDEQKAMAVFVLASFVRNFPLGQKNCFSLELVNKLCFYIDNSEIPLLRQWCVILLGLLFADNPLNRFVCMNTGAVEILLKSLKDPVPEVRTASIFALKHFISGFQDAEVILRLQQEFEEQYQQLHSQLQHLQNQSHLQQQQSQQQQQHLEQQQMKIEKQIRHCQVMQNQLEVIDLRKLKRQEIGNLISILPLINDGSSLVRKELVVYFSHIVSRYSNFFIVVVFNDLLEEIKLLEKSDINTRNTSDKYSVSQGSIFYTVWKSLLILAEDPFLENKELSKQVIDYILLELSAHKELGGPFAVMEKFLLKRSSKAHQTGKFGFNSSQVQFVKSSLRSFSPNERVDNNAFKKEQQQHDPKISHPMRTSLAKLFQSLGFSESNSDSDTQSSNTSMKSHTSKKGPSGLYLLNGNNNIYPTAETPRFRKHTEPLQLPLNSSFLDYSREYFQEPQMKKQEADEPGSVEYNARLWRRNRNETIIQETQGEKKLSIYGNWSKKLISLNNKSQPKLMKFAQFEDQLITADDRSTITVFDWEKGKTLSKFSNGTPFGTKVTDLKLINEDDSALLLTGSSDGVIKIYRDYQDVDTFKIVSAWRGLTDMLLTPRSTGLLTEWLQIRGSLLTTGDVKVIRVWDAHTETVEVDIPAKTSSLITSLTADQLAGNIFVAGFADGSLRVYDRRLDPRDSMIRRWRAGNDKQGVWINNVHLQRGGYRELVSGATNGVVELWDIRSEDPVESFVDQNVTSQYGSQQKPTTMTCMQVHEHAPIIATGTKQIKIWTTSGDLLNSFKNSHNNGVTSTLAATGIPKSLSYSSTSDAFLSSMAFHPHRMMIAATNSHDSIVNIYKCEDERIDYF"}, "source": "paper PMC9499541", "about": "“Ait1 regulates TORC1 signaling and localization in budding yeast” (eLife, 2022)", "key": {"[1]": {"target": "Kog1-FLAG (S. cerevisiae) (UniProt P38873)", "assay": "affinity purification with mass spectrometry; Kog1-FLAG captured on anti-FLAG beads from lysate treated with the cleavable crosslinker DSP and 1% digitonin; mock IP from a Kog1-HA strain; 11 experiments in nine conditions (log phase, stress and starvation); crosslinks broken before mass …"}, "GFP-Ait1 (S. cerevisiae)": {"target": "T1, GFP-Ait1 (S. cerevisiae) (UniProt Q12301)", "T1 sequence": "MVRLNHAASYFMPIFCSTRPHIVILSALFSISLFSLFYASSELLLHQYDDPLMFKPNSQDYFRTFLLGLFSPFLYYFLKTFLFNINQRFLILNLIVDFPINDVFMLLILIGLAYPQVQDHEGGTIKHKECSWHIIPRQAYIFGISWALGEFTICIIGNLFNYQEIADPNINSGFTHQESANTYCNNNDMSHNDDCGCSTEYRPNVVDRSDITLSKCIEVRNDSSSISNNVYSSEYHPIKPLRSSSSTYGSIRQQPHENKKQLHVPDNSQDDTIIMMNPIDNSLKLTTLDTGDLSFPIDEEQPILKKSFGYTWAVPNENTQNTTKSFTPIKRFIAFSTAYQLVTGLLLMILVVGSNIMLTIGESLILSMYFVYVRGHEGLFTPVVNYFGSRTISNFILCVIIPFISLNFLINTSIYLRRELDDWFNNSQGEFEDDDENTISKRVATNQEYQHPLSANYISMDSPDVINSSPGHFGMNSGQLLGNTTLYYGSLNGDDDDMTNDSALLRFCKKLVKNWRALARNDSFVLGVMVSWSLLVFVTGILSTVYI", "assay": "affinity purification with mass spectrometry; GFP-Ait1 captured on anti-GFP beads from lysate treated with DSP crosslinker and digitonin, as for Kog1; four experiments"}}, "note": "These are yes or no findings as the source states them, for the method shown. In cells and extracts the contact can be indirect. These calls come from enrichment with a bait or labelling near it, and not all partners need be listed. For some assays here: Sequences can lack the tags named with a protein.", "data": [{"binder": "Tco89 (protein, UniProt Q08921 1-799) MVHRGRTLKSDTDVTSLNASTVSHQSKPFRQFSTRSRAKSNASFKGLRRVLTHDGTLDNDYFNKHNVSQKCKSSDALFRKRTISGLNMTALTRVKSNQGKRSASFHSPVHNTLLSPKNSSHSNTGTAGFGLKPRRSKSTQSVLSLRDAQESKKSESTTDEEVECFSEDNIEDGKVNNDKVIAEHVMPEEKKNVQQLNQNELQSPDSIDEQEEDKSGTDGKENHRAVSLPLPHLSSNNYFGESSHSIEHQKDGETSPSSIETKLNATSVINEEGQSKVTKEADIDDLSSHSQNLRASLVKAGDNISEAPYDKEKKILDVGNTLAAHKSNQKPSHSDEQFDQEDHIDAPRSNSSRKSDSSFMSLRRQSSKQHKLLNEEEDLIKPDDISSAGTKDIEGHSLLENYAPNMILSQSTGVERRFENSSSIQNSLGNEIHDSGEHMASGDTFNELDDGKLRKSKKNGGRSQLGQNIPNSQSTFPTIANIGSKDNNVPQHNFSTSISSLTNNLRRAAPESFHGSRMNNIFHKKGNQNLLLRSNDLNKNSAAPASPLSNEHITSSTNSGSDANRQSNSGAKFNSFAQFLKSDGIDAESRTQRKLWLQRENSIMDLSSQNDGSDSIFMAGNIDAKREFERISHEYSNVKRFYNPLDEALLRVQPIITGNANNIRKKSHNDAQSIAHSSSDTDHKDEDDLLFTNYDKKFDDLYPHLASAKIQAVLSGIWKSESYLFNKDVNPINKNRTTSTNHSVGHTASQNARNLLRGPMGSSTTLHHQRVINSLQPTTRAVNRRMENVGYMHTQPQQR", "values": [{"measurement": "binding", "setting": "[1]", "value": "binds"}, {"measurement": "binding", "setting": "GFP-Ait1 (S. cerevisiae)", "value": "binds"}]}]}
